{"source": "PubChem BioAssay AID1224830 (NIAID, 2016)", "assay": "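Genes whose knock-down alters the TNF-alpha reporter response to LPS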 (primary screen)", "system": "human THP-1 monocytic leukaemia cells, TNF dual-luciferase reporter clone, PMA-differentiated to macrophage-like cells", "knock-down reagent": "siRNA pool against human genes, 50 nM", "duration": "LPS for 4 h, given about 3 days after siRNA transfection", "conditions": "bacterial LPS (TLR4 ligand), 10 ng/ml", "read-out": "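Ratio of firefly to renilla light, scaled to the plate median and expressed as a robust z-score per replicate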", "reading the numbers": "TNF reporter robust z-score: higher = stronger TNF reporter response to LPS", "active means": "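Each well counts as active if its z-score is over 2.8 or under -1.5; controls are left without a call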", "note": "Shown is an unselected part of about 18,000 deposited reagents. Over the whole deposit, about 2,900 (16%) were called active. 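Calls are made per well; low scores hint the gene aids the LPS response, high scores that it dampens it.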 Repeated entries: four replicate wells of each siRNA pool. Reagent sequences are not shown."}
{"Gene":"ELF5","TNF reporter robust z-score":-0.15,"Outcome":"inactive"}
{"Gene":"ELF5","TNF reporter robust z-score":0.41,"Outcome":"inactive"}
{"Gene":"ELF5","TNF reporter robust z-score":-0.13,"Outcome":"inactive"}
{"Gene":"ELF5","TNF reporter robust z-score":0.58,"Outcome":"inactive"}
{"Gene":"TMEM37","TNF reporter robust z-score":2.4,"Outcome":"inactive"}
{"Gene":"TMEM37","TNF reporter robust z-score":-0.78,"Outcome":"inactive"}
{"Gene":"TMEM37","TNF reporter robust z-score":0.91,"Outcome":"inactive"}
{"Gene":"TMEM37","TNF reporter robust z-score":1.14,"Outcome":"inactive"}
{"Gene":"MANEAL","TNF reporter robust z-score":0.58,"Outcome":"inactive"}
{"Gene":"MANEAL","TNF reporter robust z-score":-1.03,"Outcome":"inactive"}
{"Gene":"MANEAL","TNF reporter robust z-score":-0.89,"Outcome":"inactive"}
{"Gene":"MANEAL","TNF reporter robust z-score":-0.75,"Outcome":"inactive"}
{"Gene":"FBXO34","TNF reporter robust z-score":-0.03,"Outcome":"inactive"}
{"Gene":"FBXO34","TNF reporter robust z-score":1.29,"Outcome":"inactive"}
{"Gene":"FBXO34","TNF reporter robust z-score":-0.01,"Outcome":"inactive"}
{"Gene":"FBXO34","TNF reporter robust z-score":-0.36,"Outcome":"inactive"}
{"Gene":"KIN","TNF reporter robust z-score":3.84,"Outcome":"active"}
{"Gene":"KIN","TNF reporter robust z-score":2.06,"Outcome":"inactive"}
{"Gene":"KIN","TNF reporter robust z-score":3.87,"Outcome":"active"}
{"Gene":"KIN","TNF reporter robust z-score":5.97,"Outcome":"active"}
